Experimental data taken from patent US4803208A, “Opiate agonists and antagonists” (Sloan-Kettering Institute For Cancer Research, priority 1985, dated 1989).

Test system: mice
Format: in vivo, mouse
Conditions: no pretreatment

## CN1CC[C@]23c4c5ccc(O)c4O[C@H]2[C@@H](O)C=C[C@H]3[C@H]1C5.O=S(=O)(O)O [Morphine sulfate, morphine sulfate]
  Morphine sulfate ED50 value, control group: 3.7 mg/kg s.c.
